## Percent effect of library compounds

Sequences of proteins named here, by UniProt entry; tags and fusion partners are left off. Residues count along the entry.
UniProt A4I591, 1-473: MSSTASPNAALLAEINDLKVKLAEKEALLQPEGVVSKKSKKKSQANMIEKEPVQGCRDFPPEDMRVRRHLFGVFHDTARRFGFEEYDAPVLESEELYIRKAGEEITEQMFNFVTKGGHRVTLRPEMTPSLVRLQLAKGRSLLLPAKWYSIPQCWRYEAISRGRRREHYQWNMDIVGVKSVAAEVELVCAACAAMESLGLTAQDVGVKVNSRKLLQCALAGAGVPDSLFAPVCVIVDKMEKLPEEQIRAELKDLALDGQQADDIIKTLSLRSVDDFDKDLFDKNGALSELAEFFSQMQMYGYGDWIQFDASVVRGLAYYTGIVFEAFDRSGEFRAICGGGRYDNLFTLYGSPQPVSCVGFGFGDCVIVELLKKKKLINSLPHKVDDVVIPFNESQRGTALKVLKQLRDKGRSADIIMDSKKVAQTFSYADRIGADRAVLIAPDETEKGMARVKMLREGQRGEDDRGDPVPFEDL
UniProt P9WFT3, whole entry: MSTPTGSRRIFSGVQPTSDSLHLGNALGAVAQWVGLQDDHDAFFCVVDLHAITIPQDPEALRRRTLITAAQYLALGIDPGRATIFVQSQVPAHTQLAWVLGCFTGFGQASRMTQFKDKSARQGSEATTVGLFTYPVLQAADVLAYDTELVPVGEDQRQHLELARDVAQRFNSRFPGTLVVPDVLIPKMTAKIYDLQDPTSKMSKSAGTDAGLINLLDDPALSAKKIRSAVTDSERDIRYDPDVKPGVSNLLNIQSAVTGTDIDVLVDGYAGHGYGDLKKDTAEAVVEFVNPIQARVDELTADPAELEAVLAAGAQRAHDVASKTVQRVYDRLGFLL

A: 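Enzyme assay of histidyl-tRNA synthetase; the read-out is not stated. Target: Histidine-tRNA ligase, Leishmania infantum (UniProt A4I591). Tested at 30 µM. Higher reads as stronger inhibition (inferred: compounds with an IC50 in retests scored well above the rest). The assay is labelled LdHisRS but filed under L. infantum. Size under these conditions: about 69,000 compounds, about 410 of them at 50% or above in at least one test.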
B: 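Whole-parasite assay of Trypanosoma brucei over 72 hours; the read-out is not stated. Compounds at 30 µM. Higher reads as stronger inhibition (inferred: compounds with an IC50 in retests scored well above the rest). Values scatter widely below zero; nearly all retest evidence comes from the higher of the two concentrations used. Size under these conditions: about 64,000 compounds, about 940 of them at 50% or above in at least one test.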
C: 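Tryptophan-tRNA ligase, Mycobacterium tuberculosis (UniProt P9WFT3). Enzyme assay of tryptophanyl-tRNA synthetase; the read-out is not stated. Compounds at 10 µM. Direction is not recorded; retested compounds ran higher, which suggests that high means inhibition. Size under these conditions: about 65,000 compounds, about 64 of them at 50% or above in at least one test.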

Results are given as percent effect.
The controls that fix the scale are not given in the record; negative values are as filed.
This is an unselected part of the compounds tested.

- CCN(CC)CCn1cc(NC(=O)Nc2ccccc2OC)cn1 : A: 5%; B: -6.584%; C: 3.981%
- CN(Cc1nc(N)nc(N(C)C)n1)Cc1cccc2ccccc12 : A: 2.073%; B: -19.5%; C: -2.761%
- CCN(C)c1ccc(CNC(=O)CCn2cc(C)cn2)cc1F : A: 16.13%; B: -33.45%; C: 2.424%
- OC(CN1CCN(c2ncccn2)CC1)c1cccc(F)c1 (stereo unspecified) : A: 20.75%; B: 10.77%; C: -2.515%
- c1ccc2c(Cc3nnc([C@H]4CCN(C5CCOCC5)C4)o3)c[nH]c2c1 : A: 21.62%; B: -1.49%; C: 3.28%
- Cc1cc(CN(C)C(=O)CN2CCCCCC2=O)no1 : A: 18.68%; B: -10.63%; C: -1.877%
- N#Cc1ccsc1N1CCC(Sc2ncc[nH]2)C1=O (stereo unspecified) : A: 20.41%; B: -25.76%; C: -2.203%
- COCC(=O)N1CCC[C@]2(C(=O)N(C)C)CN(c3ccccn3)C[C@@H]2C1 : A: 20.75%; C: 5.561%
- CCC(NS(C)(=O)=O)c1ccccc1C (stereo unspecified) : A: 6.593%; B: -43.96%; C: 1.06%
- Cc1nn(C)c(C)c1CC(=O)NCc1cccnc1N1CCOCC1 : A: -18.09%; B: -20.64%; C: 1.237%
- COC(=O)Cn1c(=O)nc2n1C(=O)N(c1ccc(F)cc1)C2 : A: 20.78%; B: -7.225%; C: -1.731%
- O=S(=O)(C1CC1)N1CCC[C@]2(C[C@@H](Oc3ccccn3)CO2)C1 : A: 3.509%; C: 31.78%
- CNC(=O)CCc1cc(C)nc(C2CCN(C(=O)CN(C)C)CC2)c1 : A: 12.95%; B: 6.787%; C: -2.604%
- CCOc1cc(CN(C)CCC#N)ccc1OC(F)F : A: -5.882%; B: -17.19%; C: -1.614%
- O=C(O)C(F)(F)F.[H][C@@]12CCN(Cc3nc(C)cs3)C[C@@]1([H])O[C@@H](c1nc(C)no1)C2 : B: -16.32%
- Cc1cnn(CC2CCCN2C(=O)Cc2c(C)nc(C)[nH]c2=O)c1 (stereo unspecified) : A: -4.348%; B: -23.35%; C: 5.623%
- CN(Cc1cccc(O)c1)Cc1cnn(C)c1 : A: 0%; B: -18.59%; C: -5.419%
- CN(Cc1nc(C2CC2)no1)C1CCS(=O)(=O)C1 (stereo unspecified) : A: -1.961%; B: -19.88%; C: -4.359%
- CC(=O)N1CCCC2(C1)CN(C(=O)Cc1ccccc1)CCO2 (stereo unspecified) : A: 10%; B: -447.4%; C: -4.378%
- COC1CCN(C(=O)Cn2ncc(N3CCCCC3)cc2=O)C1 (stereo unspecified) : A: 18.99%; B: 13.08%; C: 2.688%
- CCNC(=O)NC(=O)C(C)N(C)CCOc1ccccc1C (stereo unspecified) : A: 28.21%; B: -1.916%; C: 1.634%
- Cl.Fc1cccc(F)c1Cn1c(C2CCCNC2)cc2cccnc21 (stereo unspecified) : B: 11.23%
- Cc1nc(-c2ccncc2)ncc1C(C)NC(=O)CN1CCCC1=O (stereo unspecified) : A: 1.639%; B: 26.57%; C: 1.932%
- COc1ccc(CN2CCN(C(=O)c3ccc(C)n3C)CC2)cc1 : A: -6.897%; B: 0.575%; C: -4.708%
- CCc1nnc2n1CCN(C(=O)c1cc(Cl)c[nH]1)C2 : A: 18.35%; C: 2.184%
- O=C(C1CCOCC1)N1CCC2(CC1)CC(Oc1ccccc1)CO2 (stereo unspecified) : A: 13.33%; B: -4.518%; C: -0.4112%
- COC(=O)C(NC(=O)CCc1ccco1)c1cc(F)ccc1F (stereo unspecified) : A: 7.692%; C: -3.046%
- CCC(Nc1cccc(OC)c1)C(=O)NCc1ccc2c(c1)OCO2 (stereo unspecified) : A: 11.48%; B: -49.43%; C: 0.6101%
- CC(=O)N1CCCC(C(=O)N2CCN(Cc3cc(C)on3)CC2)C1 (stereo unspecified) : A: 20.51%; B: 6.469%; C: -0.2793%
- Cc1cnccc1NCCNC(=O)C1CCCN(Cc2ccco2)C1 (stereo unspecified) : A: 14.58%; B: 0.9956%; C: 1.536%
- Cc1ccc(CN2CCC3(CC2)CCN(C(=O)c2cccnc2)C3)o1.O=C(O)C(F)(F)F : B: -73.63%
- CN(C)C(=O)N1CCC2(CC1)NC(=O)c1ccccc12.Cl : B: -66.27%
- Cc1ccc(NC(=O)Nc2c(O)oc3ccccc3c2=O)cc1C : A: 16.05%; B: -23.38%; C: 0.6365%
- O=C(Nc1ccc(N2CCCC2)nc1)N1CCc2ccccc2C1 : A: 40.38%; B: -24.56%; C: 1.501%
- O=C(O)C(F)(F)F.[H][C@@]12CCN(CC3CCOCC3)C[C@]1([H])O[C@@H](C(=O)N1CCC(C)CC1)C2 : B: -9.678%
- Cc1cc(CCC(=O)Nc2nncs2)nc(C2CCCN2)n1 (stereo unspecified) : A: 13.54%
- Cc1cc(Nc2ccc3c(c2)CC(=O)N3)nc(C2CC2)n1 : A: 29.03%; B: -49.14%; C: 5.873%
- CC(C)c1noc(C(C)N2CCN(Cc3ccccc3C#N)CC2)n1 (stereo unspecified) : A: 4.545%; B: 45.23%; C: 4.191%
- CC(C)N1CCCC(C(=O)N2CCN(c3nsc4ccccc34)CC2)C1 (stereo unspecified) : A: 16.78%; B: 50.26%; C: -3.289%

Once more, the final 3:

compound,A,B,C
Cc1cc(Nc2ccc3c(c2)CC(=O)N3)nc(C2CC2)n1,29.03%,-49.14%,5.873%
CC(C)c1noc(C(C)N2CCN(Cc3ccccc3C#N)CC2)n1 (stereo unspecified),4.545%,45.23%,4.191%
CC(C)N1CCCC(C(=O)N2CCN(c3nsc4ccccc34)CC2)C1 (stereo unspecified),16.78%,50.26%,-3.289%

Measurements from “University of Dundee, Small-Polar-MMV Screening Library” (2021), ChEMBL document CHEMBL3988442.